{"sequences": {"note": "By UniProt entry, the sequences of proteins in these tests, tags left out. Where a name states a change or a piece, a line headed by the entry shows the natural chain unless it says otherwise.", "UniProt Q99426": "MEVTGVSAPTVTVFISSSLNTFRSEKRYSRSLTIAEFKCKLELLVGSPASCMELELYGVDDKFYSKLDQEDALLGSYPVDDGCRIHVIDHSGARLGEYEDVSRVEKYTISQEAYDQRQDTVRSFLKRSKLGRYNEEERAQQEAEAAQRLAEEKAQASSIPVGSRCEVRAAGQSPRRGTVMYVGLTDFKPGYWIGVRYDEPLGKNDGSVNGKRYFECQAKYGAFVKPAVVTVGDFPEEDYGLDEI", "UniProt Q8IYJ3": "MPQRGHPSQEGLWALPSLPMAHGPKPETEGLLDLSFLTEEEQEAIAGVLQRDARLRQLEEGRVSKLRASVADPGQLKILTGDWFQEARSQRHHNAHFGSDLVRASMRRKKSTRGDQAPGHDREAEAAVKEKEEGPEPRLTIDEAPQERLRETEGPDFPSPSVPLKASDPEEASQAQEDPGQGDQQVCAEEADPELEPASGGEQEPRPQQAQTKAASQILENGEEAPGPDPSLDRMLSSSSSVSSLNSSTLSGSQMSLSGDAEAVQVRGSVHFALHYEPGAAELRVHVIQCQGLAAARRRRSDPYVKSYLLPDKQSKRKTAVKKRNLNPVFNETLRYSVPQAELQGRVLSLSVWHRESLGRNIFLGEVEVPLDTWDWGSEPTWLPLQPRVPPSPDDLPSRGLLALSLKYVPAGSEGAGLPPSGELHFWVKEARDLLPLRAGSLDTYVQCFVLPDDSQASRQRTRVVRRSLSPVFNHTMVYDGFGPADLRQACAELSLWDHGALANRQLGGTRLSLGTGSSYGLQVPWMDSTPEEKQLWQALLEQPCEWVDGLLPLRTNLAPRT", "UniProt Q96BW9": "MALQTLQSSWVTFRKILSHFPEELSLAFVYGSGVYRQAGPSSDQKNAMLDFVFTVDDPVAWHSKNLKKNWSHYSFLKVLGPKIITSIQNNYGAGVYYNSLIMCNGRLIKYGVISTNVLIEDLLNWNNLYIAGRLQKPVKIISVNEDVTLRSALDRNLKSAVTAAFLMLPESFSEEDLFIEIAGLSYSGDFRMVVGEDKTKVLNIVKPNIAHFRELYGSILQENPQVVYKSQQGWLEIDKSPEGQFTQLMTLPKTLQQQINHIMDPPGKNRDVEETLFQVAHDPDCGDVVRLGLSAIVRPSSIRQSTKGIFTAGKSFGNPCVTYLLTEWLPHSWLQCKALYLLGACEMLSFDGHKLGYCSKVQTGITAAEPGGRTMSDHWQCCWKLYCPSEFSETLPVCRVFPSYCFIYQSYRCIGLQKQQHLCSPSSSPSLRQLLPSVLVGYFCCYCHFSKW", "UniProt Q8TC07": "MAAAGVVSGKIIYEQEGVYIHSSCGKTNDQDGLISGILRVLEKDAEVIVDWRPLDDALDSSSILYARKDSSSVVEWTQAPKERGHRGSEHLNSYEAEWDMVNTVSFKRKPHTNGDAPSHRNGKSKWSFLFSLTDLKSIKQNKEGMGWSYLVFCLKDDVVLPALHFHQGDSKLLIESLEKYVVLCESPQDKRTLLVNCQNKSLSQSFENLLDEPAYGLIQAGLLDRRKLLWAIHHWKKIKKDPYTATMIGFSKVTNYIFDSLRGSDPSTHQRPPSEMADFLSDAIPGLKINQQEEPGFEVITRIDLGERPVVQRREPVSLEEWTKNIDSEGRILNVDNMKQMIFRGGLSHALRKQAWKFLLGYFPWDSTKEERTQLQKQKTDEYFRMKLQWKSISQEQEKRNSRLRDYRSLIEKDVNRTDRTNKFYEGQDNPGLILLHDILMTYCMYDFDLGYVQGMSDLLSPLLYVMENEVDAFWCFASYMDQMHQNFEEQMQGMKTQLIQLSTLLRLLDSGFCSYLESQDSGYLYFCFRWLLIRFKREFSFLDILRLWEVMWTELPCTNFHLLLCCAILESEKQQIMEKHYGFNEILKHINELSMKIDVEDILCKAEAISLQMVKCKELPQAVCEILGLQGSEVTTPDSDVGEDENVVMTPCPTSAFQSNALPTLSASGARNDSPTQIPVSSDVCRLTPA", "UniProt Q9BTW9": "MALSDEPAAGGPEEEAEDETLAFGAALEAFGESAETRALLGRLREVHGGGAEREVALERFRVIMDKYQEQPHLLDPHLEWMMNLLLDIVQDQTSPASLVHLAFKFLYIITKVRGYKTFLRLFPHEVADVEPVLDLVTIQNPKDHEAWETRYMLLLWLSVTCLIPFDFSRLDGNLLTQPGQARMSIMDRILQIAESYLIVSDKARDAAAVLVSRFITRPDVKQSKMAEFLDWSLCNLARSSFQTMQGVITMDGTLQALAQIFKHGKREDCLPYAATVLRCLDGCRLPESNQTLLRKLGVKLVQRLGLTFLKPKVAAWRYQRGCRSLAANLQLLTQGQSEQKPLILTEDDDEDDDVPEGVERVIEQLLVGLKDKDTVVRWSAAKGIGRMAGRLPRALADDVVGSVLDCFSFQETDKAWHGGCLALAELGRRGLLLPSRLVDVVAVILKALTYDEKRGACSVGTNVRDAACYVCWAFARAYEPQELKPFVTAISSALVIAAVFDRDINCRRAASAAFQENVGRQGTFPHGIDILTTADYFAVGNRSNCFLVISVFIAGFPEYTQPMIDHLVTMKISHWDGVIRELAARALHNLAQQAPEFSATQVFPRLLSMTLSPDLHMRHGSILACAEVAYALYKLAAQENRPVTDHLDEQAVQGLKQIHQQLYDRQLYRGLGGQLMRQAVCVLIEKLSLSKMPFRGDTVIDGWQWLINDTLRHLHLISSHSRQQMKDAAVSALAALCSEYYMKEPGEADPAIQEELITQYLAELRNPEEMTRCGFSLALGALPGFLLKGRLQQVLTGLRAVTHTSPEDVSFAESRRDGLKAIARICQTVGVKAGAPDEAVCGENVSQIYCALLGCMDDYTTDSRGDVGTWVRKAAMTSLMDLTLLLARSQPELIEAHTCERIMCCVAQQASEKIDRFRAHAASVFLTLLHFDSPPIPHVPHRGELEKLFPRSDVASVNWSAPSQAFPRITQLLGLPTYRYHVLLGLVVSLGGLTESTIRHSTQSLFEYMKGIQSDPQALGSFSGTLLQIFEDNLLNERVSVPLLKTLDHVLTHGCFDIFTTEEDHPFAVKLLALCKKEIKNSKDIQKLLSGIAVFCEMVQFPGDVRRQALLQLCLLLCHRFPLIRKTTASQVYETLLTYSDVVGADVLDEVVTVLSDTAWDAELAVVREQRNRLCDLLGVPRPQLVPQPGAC", "UniProt Q92797": "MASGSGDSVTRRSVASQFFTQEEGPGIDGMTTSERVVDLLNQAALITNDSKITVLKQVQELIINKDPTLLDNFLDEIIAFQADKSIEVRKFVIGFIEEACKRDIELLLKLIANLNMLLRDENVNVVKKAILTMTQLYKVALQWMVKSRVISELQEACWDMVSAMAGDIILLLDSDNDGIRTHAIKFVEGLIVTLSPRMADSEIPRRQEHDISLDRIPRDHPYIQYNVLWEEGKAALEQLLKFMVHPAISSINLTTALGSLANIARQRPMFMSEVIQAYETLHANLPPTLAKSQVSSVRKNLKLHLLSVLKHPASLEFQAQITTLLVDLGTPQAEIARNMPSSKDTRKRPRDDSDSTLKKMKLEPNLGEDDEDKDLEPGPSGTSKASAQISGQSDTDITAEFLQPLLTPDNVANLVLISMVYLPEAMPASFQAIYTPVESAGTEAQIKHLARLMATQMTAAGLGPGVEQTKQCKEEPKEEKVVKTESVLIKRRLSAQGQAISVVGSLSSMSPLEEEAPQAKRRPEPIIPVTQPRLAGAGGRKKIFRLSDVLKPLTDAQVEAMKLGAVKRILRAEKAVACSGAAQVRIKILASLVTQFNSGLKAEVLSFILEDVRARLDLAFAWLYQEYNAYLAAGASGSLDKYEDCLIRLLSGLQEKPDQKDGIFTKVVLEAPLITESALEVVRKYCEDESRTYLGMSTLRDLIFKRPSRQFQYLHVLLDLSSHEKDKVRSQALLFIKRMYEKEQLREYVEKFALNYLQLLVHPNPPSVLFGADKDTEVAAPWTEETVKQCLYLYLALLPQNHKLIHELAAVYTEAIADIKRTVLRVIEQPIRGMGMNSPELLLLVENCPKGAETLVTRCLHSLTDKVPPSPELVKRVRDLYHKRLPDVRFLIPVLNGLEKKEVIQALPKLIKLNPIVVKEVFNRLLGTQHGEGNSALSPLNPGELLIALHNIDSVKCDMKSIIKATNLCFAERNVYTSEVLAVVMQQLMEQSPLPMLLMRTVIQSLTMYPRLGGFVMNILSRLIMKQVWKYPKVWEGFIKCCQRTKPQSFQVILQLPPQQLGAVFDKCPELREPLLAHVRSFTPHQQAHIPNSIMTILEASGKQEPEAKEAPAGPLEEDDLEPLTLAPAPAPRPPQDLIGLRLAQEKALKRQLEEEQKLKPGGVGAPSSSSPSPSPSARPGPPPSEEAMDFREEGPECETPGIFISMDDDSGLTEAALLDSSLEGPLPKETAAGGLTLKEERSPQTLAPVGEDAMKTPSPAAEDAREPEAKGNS", "UniProt Q8TEA7": "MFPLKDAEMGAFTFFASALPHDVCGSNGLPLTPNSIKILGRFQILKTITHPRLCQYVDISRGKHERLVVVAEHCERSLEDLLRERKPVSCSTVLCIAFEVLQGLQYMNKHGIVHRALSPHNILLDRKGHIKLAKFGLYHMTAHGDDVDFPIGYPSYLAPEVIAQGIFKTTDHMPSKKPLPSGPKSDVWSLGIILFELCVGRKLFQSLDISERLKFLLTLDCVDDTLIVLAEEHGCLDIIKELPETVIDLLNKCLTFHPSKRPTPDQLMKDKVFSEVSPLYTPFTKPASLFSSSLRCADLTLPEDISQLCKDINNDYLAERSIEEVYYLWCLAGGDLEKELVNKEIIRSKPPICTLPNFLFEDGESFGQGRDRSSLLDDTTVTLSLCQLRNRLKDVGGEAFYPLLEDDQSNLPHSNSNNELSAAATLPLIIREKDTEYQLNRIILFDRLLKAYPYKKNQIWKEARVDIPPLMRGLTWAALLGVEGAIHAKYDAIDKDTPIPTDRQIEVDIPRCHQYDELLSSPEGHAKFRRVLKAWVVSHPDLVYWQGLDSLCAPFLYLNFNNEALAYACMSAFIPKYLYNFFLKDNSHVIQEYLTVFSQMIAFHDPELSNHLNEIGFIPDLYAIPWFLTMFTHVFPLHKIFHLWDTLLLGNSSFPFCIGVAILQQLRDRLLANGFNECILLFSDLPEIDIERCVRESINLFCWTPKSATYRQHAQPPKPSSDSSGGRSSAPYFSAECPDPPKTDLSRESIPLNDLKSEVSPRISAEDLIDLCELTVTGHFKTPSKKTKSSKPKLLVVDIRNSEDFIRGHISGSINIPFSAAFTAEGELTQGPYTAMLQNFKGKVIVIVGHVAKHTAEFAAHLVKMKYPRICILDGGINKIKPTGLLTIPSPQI", "UniProt P26639": "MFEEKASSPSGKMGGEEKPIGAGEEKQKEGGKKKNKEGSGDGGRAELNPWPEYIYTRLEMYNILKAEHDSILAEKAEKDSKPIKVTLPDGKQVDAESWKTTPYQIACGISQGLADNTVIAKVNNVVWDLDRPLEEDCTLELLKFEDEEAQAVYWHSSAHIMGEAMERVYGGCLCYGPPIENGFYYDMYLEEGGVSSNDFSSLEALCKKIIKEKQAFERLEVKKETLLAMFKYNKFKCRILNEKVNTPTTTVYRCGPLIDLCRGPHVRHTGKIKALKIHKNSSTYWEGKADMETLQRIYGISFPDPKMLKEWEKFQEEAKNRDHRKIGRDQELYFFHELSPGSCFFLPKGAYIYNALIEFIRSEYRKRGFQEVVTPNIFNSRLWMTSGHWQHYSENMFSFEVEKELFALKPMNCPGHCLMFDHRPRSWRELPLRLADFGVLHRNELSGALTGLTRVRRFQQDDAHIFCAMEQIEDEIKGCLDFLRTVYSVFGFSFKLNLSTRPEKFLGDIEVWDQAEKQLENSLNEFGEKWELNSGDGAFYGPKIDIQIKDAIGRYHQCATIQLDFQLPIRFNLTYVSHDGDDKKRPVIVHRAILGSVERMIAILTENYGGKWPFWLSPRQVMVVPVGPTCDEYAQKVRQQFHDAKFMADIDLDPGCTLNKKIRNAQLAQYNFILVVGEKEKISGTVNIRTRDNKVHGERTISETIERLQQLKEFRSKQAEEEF"}, "source": "the supplement of paper PMC12067093", "about": "“Discovery and optimisation of a covalent ligand for TRIM25 and its application to targeted protein ubiquitination” (Chemical Science, 2025)", "note": "Some of the results follow.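 Further: competitive chemoproteomic profiling in live THP-1 cells with an iodoacetamide desthiobiotin (IA-DTB) probe, comparing probe-labelled peptide intensities in compound-treated cells against DMSO-treated controls.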", "data": [{"compound": "CC1Cc2ccccc2N1C(=O)C1CCCN(C1)C(=O)CCl (mixture of isomers) [TRIM25 ligand 11 (diastereomer mixture)]", "assay": "probe-labelled cysteine peptide fold change vs DMSO (competition) (log2 fold change); higher = less target engagement (more negative = stronger competition)", "details": "50 µM; THP-1; incubation time: 4 h", "values": [{"target": "TBCB_Q99426_216_YFECQAK (UniProt Q99426)", "probe-labelled cysteine peptide fold change": 0.0326}, {"target": "TARDBP_Q13148_39_VTEDENDEPIEIPSEDDGTVLLSTVTAQFPGACGLR (UniProt Q13148)", "probe-labelled cysteine peptide fold change": 0.0368}, {"target": "TBL3_Q12788_597_NNECVR (UniProt Q12788)", "probe-labelled cysteine peptide fold change": 0.337}, {"target": "SYTL1_Q8IYJ3_290_VHVIQCQGLAAAR (UniProt Q8IYJ3)", "probe-labelled cysteine peptide fold change": 0.0114}, {"target": "TBC1D1_Q86TI0_387+390_APAQLCEGCPLQSLHK (UniProt Q86TI0)", "probe-labelled cysteine peptide fold change": 0.0225}, {"target": "TAMM41_Q96BW9_285_DVEETLFQVAHDPDCGDVVR (UniProt Q96BW9)", "probe-labelled cysteine peptide fold change": 0.0187}, {"target": "SYK_P43405_89+101_THASPADLCHYHSQESDGLVCLLK (UniProt P43405)", "probe-labelled cysteine peptide fold change": -0.215}, {"target": "TBCB_Q99426_51_LELLVGSPASCMELELYGVDDK (UniProt Q99426)", "probe-labelled cysteine peptide fold change": 0.0105}, {"target": "TBL3_Q12788_298_VWEAASGQCVYTQAQPPGPGQELTHCTLAHTAGVVLTATADHNLLLYEAR (UniProt Q12788)", "probe-labelled cysteine peptide fold change": -0.123}, {"target": "TBC1D15_Q8TC07_184_YVVLCESPQDKR (UniProt Q8TC07)", "probe-labelled cysteine peptide fold change": 0.0631}, {"target": "TBCD_Q9BTW9_420_AWHGGCLALAELGR (UniProt Q9BTW9)", "probe-labelled cysteine peptide fold change": 0.148}, {"target": "SYMPK_Q92797_848_GMGMNSPELLLLVENCPK (UniProt Q92797)", "probe-labelled cysteine peptide fold change": -0.0231}, {"target": "TBCK_Q8TEA7_74_LVVVAEHCER (UniProt Q8TEA7)", "probe-labelled cysteine peptide fold change": 0.0466}, {"target": "TBL3_Q12788_526_GLWCVQFSPMDQVLATASADGTIK (UniProt Q12788)", "probe-labelled cysteine peptide fold change": 0.0681}, {"target": "TARS_P26639_107_TTPYQIACGISQGLADNTVIAK (UniProt P26639)", "probe-labelled cysteine peptide fold change": 0.0371}]}]}
